The exact form of at least one protein or probe is not confirmed.
Target: MtAra-1 DNA-binding domain (Zn(II)2Cys6) (Myceliophthora thermophila) (UniProt G2QNA9)
Experiment: EMSA
Conditions: 10 ng probe, retardation from 10 nM protein, 25 °C, 30 min, buffer composition, recombinant protein, residues 9-68, protein details: N-terminal GST (pGEX-4T-1), probe letters rebuilt from the primers and the genome

Sequence	binding result
GCTCGAGATGCCGTCACTACACCGCCGTTGGTCGCCGTTGGTCGCCGTTAGTGGGCGAGGTGGACCGATGTTCCTGCCCGGTCGCTTGGCAGTCTAGCGCCCGGAGTTGTGTATGTACGGAGTACAGTACTGTACAGTACAGAGTTTTGATCTTTTCCCGCTGGGCAGCTGACGCACACCCTCTCTCCTGGAAGGAACTGGTCTGGGGGGCTGGCATCCTCTCGCTTCCCCACACTCCGCACTCGGGGTAAACAACATGCGGGGGACGCATTCATCGGTGGGCTGACCAAAACCCCCATGTAATTATCCGAGTTTCCTAGTCACATGCCCGAAGTAATTACAAACAGGAAGAGGCTGTAAAACCACACCACAGCGATTGCTTTCCCGAGTCTGGATGCAAACGGCAGCATATCGCAAAATCACAAAATACCCGCCTCCTCAATTAGCTGCAAGCAGTTCGTCTC (double strand) [Mtlat-1 promoter probe P2]	binds
GAGCCAAAAACTGCCTCCTTCGGTAGTGTGCCCTTGTGAGCTTGTTGCGAGTCCACAGCGGCCCCGCCAGGGCGCCAGAAGCGCGCCTATCAGGTGGCCGCGACCCGTCAGCTTGGCACCGCCGGGTGCAGCGCGGGATTCTTGACTCGATCGTTGTTCCATTACACTCCCCAGAGCTTTCCCCATTGATTGGCGGGATCCACCGTCCGAAAACCCTGGCCTGGGGCTTGAGAGCGGACCAAACAAAACAAAGGAGCCATCGTTCCATGGCAGCATCAAGCATGTGCTTGCCATGTAACGTCCACTCTCCGGGTTTGCAGCCCACGATGGGTCCGTTTTTGATCAATCTCGGCCCGTGTCGAGTCGACTCCGCATGGAGTCTGTCAGGGGGATGATC (double strand) [Mtlat-1 promoter probe P1]	binds

From publication PMC10040116
